{"source": "patent US20050234026A1", "about": "“Method and agent for inducing apoptosis/cell death in leukemia cells” (priority 2003, published 2005)", "test_system": "CLL cells", "assay": "Cytotoxicity of NOS inhibitors and NO quenchers/scavengers for freshly-isolated CLL cells in vitro", "assay_type": "cell-based, human", "settings": "Table 2, CLL cytotoxicity", "data": [{"smiles": "Cc1cccc(N)n1", "note": "[2-amino-6-methyl pyridine]", "values": [{"measurement": "ED50 for CLL", "value": ">2000", "unit": "µM"}]}]}
